# Assay results taken from patent WO2018065552A1 (dated 2018).
# No constants are given. Whether binding was seen depends on the method and setting. Some results given as binding are weak or reduced against the parent protein; the word gives no strength.
# T1: human CD39 endogenously expressed on Ramos human lymphoma cells (human) (UniProt P49961)
# T1 sequence: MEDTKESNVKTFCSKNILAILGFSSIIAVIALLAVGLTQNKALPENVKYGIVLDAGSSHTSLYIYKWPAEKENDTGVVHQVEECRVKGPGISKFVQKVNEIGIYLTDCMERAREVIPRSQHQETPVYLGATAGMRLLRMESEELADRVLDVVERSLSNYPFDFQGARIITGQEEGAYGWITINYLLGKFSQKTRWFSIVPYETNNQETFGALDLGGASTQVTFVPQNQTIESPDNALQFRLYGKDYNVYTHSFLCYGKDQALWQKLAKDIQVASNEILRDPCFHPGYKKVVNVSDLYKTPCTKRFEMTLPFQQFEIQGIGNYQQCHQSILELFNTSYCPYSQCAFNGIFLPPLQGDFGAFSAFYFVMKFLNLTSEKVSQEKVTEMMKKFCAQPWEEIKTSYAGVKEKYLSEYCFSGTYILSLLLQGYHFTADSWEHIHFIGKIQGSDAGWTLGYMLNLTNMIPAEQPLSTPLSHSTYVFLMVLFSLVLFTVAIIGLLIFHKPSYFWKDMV
# Molecular target: T1, human CD39 endogenously expressed on Ramos human lymphoma cells (human)
# Assay: flow cytometry, antibody titration on Ramos cells endogenously expressing CD39
binder,measurement,value
"HH1/L0 (antibody, human IgG1, V domains shown) VH: QVQLVQSGSELKKPGASVKVSCKASGYTFTHYGMNWVRQAPGQGLKWMGWINTYTGEPTYAQDFKGRFVFSLDTSVSTAYLQISSLKAEDTAVYYCARRRYEGNYVFYYFDYWGQGTTVTVSS VL: DIQMTQSPSSLSASVGDRVTITCRASENIYSYFSWYQQKPGKAPKLLIYTAKTLAEGVPSRFSGSGSGTDFTLTISSLQPEDFATYYCQHHYVTPYTFGGGTKVEIK",binding,binds
